Data as given in the supplement of paper PMC10849652.
The other results are listed elsewhere or left out.

Amino acid sequences for entries named in this document (tags omitted). A change or cut given only in a name is not applied to a line headed by its entry.
UniProt Q96QG7: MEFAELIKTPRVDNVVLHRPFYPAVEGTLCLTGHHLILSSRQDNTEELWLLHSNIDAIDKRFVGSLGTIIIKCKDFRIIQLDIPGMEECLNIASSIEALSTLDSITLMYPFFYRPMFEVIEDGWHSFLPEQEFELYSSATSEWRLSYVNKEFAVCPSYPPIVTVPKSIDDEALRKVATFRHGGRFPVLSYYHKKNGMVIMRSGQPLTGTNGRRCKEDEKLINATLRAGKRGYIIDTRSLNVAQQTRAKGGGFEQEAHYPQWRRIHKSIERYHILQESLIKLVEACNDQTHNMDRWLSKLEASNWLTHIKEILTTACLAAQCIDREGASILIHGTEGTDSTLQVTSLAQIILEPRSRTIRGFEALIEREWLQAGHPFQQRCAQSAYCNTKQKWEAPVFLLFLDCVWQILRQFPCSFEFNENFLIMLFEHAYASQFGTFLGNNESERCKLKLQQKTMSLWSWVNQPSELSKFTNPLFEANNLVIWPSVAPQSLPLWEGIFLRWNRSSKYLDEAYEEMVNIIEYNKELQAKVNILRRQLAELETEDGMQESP
UniProt Q9BQG0: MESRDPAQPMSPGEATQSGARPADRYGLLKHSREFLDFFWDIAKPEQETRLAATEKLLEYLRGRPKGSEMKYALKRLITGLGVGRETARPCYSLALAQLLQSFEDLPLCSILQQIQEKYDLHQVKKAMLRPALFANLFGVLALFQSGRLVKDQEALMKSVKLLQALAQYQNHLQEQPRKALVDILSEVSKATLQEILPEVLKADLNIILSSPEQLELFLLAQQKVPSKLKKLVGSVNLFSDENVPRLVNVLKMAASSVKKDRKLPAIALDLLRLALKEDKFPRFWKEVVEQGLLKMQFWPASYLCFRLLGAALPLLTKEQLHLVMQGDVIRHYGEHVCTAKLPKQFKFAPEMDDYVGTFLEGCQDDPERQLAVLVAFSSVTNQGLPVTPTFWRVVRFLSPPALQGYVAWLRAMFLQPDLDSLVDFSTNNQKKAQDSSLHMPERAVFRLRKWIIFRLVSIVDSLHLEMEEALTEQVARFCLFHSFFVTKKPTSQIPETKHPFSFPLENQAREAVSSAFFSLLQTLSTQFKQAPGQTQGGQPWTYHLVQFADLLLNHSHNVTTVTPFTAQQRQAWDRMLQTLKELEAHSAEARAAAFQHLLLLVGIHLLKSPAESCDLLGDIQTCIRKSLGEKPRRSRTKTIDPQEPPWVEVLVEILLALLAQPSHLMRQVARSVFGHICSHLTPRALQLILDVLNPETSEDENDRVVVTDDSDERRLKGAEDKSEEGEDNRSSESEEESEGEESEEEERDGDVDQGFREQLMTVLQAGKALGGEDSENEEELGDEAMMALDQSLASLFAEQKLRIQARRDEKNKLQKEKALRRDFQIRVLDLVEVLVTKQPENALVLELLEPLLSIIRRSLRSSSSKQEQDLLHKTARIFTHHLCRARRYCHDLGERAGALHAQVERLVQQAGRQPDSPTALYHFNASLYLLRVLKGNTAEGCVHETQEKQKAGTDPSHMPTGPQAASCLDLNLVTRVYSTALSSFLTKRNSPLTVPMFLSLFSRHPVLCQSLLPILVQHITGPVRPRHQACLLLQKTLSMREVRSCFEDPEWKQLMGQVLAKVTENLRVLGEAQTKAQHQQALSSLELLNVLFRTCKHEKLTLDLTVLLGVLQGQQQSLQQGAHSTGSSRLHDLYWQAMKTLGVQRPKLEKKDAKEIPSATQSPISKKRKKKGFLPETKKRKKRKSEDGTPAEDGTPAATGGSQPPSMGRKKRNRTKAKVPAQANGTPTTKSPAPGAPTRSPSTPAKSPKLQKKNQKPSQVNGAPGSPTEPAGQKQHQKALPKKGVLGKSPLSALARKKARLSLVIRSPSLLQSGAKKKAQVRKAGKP
UniProt Q9H903: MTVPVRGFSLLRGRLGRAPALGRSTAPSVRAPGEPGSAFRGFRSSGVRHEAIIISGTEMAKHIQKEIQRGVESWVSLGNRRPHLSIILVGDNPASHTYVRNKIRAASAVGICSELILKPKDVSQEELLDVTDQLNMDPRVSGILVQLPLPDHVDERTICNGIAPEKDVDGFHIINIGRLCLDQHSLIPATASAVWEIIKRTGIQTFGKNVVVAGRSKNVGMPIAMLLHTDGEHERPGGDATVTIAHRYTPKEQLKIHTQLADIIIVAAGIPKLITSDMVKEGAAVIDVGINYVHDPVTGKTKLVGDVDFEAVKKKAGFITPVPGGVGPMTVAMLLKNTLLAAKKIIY
UniProt P13533, whole entry, looked up: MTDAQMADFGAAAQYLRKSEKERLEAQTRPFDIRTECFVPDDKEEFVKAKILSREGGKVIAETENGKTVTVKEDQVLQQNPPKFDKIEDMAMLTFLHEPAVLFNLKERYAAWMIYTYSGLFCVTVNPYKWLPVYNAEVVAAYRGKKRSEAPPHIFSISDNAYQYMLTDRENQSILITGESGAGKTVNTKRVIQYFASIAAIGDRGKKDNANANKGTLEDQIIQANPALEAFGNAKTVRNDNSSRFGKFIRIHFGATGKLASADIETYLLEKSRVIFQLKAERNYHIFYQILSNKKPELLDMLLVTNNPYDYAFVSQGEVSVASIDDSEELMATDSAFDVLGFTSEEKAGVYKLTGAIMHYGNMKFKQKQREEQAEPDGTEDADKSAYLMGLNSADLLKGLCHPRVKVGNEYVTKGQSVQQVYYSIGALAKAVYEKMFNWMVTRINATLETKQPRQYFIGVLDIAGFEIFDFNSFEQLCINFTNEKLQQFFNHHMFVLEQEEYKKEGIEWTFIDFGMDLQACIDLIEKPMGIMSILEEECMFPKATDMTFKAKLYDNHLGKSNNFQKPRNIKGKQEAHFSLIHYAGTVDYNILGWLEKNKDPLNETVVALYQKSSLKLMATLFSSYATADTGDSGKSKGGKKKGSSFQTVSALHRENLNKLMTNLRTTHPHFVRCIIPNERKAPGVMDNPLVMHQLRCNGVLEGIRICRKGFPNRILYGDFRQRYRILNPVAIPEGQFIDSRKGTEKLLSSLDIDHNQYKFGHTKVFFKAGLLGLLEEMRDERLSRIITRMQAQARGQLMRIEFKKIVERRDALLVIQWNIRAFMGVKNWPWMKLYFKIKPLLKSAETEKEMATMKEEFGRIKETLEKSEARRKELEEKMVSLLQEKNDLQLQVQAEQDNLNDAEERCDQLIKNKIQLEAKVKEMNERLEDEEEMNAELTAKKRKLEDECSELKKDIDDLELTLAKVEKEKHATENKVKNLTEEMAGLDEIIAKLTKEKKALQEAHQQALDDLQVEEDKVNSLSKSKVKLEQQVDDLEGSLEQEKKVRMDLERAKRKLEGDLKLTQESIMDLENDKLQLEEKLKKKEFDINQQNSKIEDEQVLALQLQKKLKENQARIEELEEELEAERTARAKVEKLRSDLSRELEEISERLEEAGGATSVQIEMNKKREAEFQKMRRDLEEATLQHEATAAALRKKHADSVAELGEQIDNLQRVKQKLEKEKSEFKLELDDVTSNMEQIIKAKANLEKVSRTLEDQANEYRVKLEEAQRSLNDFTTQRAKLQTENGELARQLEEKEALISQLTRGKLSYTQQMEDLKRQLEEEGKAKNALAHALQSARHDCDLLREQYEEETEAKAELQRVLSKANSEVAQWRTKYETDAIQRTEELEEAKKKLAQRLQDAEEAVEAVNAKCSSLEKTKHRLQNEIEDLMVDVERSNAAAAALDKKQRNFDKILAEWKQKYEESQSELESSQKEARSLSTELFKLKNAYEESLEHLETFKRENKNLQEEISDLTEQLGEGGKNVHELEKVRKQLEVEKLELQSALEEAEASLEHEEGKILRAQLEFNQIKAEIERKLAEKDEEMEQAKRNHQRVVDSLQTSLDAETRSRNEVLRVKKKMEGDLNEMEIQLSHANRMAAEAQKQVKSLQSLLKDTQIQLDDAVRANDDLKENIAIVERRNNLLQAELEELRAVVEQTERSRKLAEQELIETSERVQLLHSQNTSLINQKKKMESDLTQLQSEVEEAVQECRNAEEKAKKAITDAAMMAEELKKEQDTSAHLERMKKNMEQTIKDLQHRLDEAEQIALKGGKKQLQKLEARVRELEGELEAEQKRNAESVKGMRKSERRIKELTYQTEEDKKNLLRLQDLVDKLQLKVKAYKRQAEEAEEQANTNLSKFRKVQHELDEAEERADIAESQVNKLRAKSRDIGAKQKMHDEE
UniProt Q9H2K0, whole entry, looked up: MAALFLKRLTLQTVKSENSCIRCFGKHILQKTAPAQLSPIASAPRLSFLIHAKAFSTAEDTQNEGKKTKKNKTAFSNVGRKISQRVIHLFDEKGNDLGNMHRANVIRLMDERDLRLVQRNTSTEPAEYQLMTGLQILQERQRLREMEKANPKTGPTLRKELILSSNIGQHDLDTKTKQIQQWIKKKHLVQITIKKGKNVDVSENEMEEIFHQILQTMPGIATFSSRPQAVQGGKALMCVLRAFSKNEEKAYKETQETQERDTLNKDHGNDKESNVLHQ
UniProt Q93083: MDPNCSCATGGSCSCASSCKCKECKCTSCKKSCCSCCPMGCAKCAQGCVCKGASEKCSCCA
UniProt P11055, whole entry, looked up: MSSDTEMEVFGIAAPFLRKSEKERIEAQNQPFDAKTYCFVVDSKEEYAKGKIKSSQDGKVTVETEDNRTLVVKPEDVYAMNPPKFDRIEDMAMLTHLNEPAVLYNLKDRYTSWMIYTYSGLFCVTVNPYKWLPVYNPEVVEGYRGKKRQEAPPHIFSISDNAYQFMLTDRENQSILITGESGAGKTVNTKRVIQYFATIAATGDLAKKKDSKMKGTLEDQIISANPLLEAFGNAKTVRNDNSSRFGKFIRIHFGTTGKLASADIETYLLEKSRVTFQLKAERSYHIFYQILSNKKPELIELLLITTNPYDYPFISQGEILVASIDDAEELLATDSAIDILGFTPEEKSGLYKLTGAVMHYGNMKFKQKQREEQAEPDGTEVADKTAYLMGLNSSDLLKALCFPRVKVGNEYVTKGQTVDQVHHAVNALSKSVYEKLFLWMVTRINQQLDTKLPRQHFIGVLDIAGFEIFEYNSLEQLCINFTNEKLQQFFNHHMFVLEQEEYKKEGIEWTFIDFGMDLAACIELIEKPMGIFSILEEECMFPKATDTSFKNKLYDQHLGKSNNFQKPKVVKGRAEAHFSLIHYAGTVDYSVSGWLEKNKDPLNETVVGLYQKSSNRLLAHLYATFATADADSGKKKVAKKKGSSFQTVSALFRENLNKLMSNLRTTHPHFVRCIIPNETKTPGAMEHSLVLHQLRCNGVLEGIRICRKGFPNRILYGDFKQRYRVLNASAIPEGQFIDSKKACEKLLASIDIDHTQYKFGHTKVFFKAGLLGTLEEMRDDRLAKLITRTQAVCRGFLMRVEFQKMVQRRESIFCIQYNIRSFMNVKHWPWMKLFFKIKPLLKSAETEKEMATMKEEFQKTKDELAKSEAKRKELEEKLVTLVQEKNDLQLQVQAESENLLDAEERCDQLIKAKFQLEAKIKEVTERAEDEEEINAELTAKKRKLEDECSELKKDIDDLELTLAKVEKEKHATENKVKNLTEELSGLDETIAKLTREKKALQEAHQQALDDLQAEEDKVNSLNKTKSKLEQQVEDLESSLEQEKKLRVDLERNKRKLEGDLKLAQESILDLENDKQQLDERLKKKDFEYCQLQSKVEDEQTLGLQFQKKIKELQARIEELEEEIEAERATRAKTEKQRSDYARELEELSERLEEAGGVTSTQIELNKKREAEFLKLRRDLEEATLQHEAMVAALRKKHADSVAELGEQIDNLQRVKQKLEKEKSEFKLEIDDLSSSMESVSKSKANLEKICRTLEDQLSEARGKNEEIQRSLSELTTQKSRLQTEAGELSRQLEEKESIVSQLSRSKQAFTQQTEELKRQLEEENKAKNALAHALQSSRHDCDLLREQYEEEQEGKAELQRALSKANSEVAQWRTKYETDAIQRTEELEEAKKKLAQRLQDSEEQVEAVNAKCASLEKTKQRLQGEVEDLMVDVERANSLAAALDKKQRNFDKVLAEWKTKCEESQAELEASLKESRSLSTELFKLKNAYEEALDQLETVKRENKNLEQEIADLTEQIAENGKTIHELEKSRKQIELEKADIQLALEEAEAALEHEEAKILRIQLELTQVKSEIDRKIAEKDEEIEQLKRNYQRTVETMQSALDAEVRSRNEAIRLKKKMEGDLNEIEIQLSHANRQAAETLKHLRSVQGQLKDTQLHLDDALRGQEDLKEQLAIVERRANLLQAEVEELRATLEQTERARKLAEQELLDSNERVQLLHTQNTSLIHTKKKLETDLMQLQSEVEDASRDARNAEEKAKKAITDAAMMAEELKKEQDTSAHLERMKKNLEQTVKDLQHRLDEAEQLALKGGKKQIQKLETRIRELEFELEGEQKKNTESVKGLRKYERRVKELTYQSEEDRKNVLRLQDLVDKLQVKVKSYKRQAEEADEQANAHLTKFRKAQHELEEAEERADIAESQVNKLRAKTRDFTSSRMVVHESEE

Compound: O=C1NC(=O)C(c2cnc3ccccn23)=C1c1cn2c3c(cc(F)cc13)CN(C(=O)N1CCCCC1)CC2
Experiment: log2 fold change, soluble protein after heating vs DMSO (PISA); higher = thermal stabilisation; K562 cells, 10 uM, 30 min; active = over 0.2 and 3.5 SD of the protein, either way, in both replicates (recomputed)
Method in brief: (§1)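 K562 cells at 2×10^6 cells/mL were exposed to 10 μM compound for 30 min, then aliquots were heated for 3 min across 48°C-58°C, pooled, and extracted in PBS containing 0.5% NP-40 at 4°C. The supernatant after 21,000xg for 90 min was taken as soluble protein and measured by TMTpro 16plex LC-MS/MS with channel sums equalised. Thermal stability is reported relative to control samples, with values from duplicates. Fold changes are given on a log2 scale.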

log2 fold change, inactive:
MYO19 (UniProt Q96H55) 0.232
MTMR9 (UniProt Q96QG7) -0.007
MTFR1L (UniProt Q9H019) -0.014
MTRES1 (UniProt Q9P0P8) -0.059
MRPS14 (UniProt O60783) -0.141
MYO9A isoform 4 (UniProt B2RTY4) 0.307
MTIF2 (UniProt P46199) -0.147
MSANTD2 (UniProt Q6P1R3) 0.004
MTG1 (UniProt Q9BT17) 0.095
MTRF1L (UniProt Q9UGC7) -0.037
MYBBP1A isoform 2 (UniProt Q9BQG0) 0.209
MTHFD2L (UniProt Q9H903) -0.126
MTA3 (UniProt Q9BTC8) -0.164
MYH6 (UniProt P13533) -0.017
MUC7 (UniProt Q8TAX7) -1.92
MRPS36 (UniProt D6R941) -0.174
MTIF3 (UniProt Q9H2K0) -0.071
MTFMT (UniProt Q96DP5) 0.161
MTMR10 (UniProt Q9NXD2) -0.04
MYO18B isoform 3 (UniProt Q8IUG5) -0.047

Compound: c1cc(OCCN2CCCCC2)cc(-c2n[nH]c3ccc(-c4nnc[nH]4)cc23)c1
Experiment: as above
Method in brief: as §1

log2 fold change, inactive:
MTMR9 (UniProt Q96QG7) -0.034
MVP (UniProt Q14764) -0.857
MTRES1 (UniProt Q9P0P8) -0.022
MYL3 (UniProt P08590) -0.101
MRPS14 (UniProt O60783) 0.004
MYH15 (UniProt Q9Y2K3) 0.016
MT1L (UniProt Q93083) 0.234
MYH4 (UniProt Q9Y623) -1.41
MSANTD2 (UniProt Q6P1R3) 0.16
MYH2 (UniProt Q9UKX2) -1.28
MTHFD1L (UniProt B7ZM99) 0.03
MYLK (UniProt Q15746) 0.204
MTRF1L (UniProt Q9UGC7) -0.167
MYBBP1A isoform 2 (UniProt Q9BQG0) -0.208
MTA3 (UniProt Q9BTC8) 0.659
MTFMT (UniProt Q96DP5) -0.07
MYH3 (UniProt P11055) -0.538
MYO18B isoform 3 (UniProt Q8IUG5) -0.238
